# From the supplement of paper PMC10849652
# By UniProt entry, the sequences of proteins in these tests, tags left out. Where a name states a change or a piece, a line headed by the entry shows the natural chain unless it says otherwise.
# UniProt Q8WXF1: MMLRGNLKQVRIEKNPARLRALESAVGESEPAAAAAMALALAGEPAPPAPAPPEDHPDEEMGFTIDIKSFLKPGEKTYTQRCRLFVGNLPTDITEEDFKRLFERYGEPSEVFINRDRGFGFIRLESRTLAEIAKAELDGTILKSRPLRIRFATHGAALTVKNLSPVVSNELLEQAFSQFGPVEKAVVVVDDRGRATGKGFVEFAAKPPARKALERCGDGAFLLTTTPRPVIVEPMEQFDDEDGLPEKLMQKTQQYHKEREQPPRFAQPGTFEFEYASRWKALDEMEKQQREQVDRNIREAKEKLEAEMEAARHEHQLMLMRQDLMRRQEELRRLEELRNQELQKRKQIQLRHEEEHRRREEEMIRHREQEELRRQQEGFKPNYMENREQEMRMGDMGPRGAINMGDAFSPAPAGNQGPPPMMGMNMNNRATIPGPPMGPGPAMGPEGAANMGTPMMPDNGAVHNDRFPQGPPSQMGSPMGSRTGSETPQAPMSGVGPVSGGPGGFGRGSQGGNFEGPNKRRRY
# UniProt Q16401: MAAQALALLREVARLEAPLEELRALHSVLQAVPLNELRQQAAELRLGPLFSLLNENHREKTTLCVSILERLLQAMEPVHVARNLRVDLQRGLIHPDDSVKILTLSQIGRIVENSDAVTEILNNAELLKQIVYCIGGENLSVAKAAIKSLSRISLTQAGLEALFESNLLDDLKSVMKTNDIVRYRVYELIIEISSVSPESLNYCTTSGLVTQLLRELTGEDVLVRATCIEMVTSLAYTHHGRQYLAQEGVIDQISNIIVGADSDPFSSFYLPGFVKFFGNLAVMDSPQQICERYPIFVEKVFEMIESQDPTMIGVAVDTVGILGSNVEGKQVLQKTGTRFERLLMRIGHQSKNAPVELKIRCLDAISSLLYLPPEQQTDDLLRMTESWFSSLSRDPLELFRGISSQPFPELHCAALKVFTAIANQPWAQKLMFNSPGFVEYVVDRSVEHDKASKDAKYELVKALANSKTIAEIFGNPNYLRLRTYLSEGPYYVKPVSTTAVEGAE
# UniProt Q6GMV3: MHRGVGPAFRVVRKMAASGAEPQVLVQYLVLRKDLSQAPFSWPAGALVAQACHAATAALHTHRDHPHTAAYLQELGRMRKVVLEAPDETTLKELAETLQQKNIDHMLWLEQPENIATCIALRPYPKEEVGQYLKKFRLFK
# UniProt Q9Y606: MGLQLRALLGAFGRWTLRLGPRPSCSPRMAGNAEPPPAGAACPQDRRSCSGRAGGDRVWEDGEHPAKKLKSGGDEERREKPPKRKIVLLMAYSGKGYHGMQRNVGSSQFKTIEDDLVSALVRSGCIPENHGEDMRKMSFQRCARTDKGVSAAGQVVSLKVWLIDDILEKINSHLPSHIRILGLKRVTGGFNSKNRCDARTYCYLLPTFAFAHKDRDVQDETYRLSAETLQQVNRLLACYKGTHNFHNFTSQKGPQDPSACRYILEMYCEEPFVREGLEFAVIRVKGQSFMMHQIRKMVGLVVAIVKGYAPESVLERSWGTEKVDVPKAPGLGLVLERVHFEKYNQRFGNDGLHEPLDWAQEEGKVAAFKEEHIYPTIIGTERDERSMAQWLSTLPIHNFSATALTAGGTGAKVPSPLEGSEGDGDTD
# UniProt Q9NYI0: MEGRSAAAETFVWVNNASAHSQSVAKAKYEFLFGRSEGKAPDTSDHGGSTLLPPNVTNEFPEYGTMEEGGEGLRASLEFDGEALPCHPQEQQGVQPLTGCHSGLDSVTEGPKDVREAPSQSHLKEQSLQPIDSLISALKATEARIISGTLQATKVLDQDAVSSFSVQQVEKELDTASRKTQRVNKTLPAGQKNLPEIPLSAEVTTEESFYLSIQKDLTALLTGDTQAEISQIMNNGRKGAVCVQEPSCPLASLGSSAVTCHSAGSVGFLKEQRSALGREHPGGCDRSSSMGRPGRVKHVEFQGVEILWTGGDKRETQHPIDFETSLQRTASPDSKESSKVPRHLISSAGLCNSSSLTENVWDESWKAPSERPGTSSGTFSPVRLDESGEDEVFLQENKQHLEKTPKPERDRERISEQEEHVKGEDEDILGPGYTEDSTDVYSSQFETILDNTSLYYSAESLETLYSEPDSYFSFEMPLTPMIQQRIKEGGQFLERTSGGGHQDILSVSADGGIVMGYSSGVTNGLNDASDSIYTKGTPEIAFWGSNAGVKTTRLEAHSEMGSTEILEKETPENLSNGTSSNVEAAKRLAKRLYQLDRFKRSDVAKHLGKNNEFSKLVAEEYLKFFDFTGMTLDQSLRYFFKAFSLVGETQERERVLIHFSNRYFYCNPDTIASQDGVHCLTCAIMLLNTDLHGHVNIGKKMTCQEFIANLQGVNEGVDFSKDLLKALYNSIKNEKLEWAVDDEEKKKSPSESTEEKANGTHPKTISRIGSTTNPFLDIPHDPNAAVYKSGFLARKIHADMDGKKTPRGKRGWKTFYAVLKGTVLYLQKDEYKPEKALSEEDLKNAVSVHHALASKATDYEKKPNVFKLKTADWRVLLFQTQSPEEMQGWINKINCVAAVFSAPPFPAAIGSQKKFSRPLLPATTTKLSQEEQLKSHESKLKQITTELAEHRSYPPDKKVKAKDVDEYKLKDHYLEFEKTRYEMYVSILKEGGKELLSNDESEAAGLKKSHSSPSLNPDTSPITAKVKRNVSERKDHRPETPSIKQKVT
# UniProt Q9BQI7: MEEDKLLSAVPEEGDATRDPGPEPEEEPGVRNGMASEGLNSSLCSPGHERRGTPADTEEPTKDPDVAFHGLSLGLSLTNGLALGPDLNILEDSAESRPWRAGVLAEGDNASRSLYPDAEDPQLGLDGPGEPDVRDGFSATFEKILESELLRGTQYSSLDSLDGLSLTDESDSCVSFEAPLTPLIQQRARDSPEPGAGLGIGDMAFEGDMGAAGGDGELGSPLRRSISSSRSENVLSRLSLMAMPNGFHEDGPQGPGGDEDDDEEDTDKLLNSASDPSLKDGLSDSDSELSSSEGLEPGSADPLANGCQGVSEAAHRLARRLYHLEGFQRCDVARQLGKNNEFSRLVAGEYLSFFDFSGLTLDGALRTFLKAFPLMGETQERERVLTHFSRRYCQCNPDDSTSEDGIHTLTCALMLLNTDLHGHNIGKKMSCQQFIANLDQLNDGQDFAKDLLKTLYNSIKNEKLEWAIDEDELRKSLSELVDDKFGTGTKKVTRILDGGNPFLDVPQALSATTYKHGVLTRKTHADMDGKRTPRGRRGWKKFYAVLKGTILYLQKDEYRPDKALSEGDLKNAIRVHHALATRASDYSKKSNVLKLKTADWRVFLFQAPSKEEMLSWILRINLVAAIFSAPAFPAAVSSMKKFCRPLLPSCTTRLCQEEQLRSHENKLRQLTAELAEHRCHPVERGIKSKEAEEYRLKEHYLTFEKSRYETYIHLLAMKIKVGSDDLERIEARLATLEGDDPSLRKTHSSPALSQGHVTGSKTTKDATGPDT
# UniProt Q12913: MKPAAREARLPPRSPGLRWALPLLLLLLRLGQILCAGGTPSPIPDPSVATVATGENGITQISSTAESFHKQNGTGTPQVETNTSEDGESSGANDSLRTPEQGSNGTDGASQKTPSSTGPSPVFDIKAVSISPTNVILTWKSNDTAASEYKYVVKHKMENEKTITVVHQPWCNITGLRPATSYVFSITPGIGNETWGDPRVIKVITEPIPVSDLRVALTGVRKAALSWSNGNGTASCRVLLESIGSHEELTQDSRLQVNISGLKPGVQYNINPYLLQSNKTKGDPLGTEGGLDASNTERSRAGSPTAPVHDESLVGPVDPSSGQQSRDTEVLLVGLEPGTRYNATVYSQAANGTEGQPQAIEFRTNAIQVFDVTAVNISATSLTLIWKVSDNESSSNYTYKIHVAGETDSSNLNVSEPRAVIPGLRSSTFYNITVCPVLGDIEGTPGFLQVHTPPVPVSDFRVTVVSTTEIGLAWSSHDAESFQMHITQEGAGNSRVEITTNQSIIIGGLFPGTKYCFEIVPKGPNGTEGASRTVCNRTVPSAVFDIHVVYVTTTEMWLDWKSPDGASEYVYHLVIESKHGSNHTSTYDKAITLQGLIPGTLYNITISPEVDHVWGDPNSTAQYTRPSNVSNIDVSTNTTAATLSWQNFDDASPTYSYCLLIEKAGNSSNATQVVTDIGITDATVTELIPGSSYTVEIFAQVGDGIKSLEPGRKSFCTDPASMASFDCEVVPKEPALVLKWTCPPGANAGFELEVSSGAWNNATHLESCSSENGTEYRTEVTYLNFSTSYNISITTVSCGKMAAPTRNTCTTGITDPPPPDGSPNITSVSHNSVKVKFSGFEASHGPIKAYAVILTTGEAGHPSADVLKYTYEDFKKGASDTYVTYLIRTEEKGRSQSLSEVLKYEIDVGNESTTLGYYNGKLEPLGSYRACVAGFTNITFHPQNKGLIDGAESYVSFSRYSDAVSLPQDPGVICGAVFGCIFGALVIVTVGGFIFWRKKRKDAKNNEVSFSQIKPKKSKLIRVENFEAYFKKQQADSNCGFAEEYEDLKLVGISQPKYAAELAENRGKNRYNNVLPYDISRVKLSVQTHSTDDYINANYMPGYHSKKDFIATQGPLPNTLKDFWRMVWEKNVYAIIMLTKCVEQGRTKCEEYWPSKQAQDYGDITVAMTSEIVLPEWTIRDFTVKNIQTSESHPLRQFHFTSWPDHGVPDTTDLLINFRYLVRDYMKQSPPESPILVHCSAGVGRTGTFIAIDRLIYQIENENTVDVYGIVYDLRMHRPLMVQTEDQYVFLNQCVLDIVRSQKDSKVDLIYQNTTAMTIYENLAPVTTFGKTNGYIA
# UniProt P40306: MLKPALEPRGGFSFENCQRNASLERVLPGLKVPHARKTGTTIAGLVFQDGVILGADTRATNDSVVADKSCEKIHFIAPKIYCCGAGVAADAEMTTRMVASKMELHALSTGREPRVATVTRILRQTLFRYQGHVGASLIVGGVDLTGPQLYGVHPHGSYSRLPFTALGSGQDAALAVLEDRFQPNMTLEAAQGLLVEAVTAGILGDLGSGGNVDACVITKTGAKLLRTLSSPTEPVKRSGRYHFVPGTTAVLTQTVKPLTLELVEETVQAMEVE
# UniProt P43115: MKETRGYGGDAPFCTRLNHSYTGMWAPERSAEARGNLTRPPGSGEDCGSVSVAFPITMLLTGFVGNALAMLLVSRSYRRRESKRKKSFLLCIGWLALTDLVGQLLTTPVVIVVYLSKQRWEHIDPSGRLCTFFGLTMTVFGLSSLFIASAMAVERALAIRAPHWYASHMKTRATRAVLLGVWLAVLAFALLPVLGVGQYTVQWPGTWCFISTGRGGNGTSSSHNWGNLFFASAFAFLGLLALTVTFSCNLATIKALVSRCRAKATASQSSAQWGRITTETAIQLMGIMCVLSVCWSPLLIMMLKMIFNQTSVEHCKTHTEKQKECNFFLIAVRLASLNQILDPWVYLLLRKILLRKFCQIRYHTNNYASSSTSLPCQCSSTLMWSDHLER
# UniProt P28065: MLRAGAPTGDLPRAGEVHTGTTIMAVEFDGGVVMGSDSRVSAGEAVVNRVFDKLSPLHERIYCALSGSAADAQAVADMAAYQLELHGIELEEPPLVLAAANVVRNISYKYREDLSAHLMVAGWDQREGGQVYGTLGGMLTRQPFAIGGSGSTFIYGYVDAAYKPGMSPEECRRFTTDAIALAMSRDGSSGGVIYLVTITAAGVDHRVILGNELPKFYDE
# UniProt Q9UJV8: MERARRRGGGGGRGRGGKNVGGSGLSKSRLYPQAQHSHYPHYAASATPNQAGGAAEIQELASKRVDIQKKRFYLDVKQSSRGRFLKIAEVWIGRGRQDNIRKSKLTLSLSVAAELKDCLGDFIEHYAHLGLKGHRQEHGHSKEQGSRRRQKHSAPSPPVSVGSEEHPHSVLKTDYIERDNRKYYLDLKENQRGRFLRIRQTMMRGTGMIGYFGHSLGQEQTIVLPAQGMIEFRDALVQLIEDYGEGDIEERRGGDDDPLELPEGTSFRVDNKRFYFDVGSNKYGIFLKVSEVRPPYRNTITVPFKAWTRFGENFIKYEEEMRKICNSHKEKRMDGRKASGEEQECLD
# UniProt Q86Y79: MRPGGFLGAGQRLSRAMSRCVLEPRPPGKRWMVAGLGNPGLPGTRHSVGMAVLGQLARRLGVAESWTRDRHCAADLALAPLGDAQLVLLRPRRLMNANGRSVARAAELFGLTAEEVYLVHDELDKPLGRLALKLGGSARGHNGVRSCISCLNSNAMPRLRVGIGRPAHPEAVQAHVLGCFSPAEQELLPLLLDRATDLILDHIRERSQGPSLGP
# UniProt Q9BRQ0: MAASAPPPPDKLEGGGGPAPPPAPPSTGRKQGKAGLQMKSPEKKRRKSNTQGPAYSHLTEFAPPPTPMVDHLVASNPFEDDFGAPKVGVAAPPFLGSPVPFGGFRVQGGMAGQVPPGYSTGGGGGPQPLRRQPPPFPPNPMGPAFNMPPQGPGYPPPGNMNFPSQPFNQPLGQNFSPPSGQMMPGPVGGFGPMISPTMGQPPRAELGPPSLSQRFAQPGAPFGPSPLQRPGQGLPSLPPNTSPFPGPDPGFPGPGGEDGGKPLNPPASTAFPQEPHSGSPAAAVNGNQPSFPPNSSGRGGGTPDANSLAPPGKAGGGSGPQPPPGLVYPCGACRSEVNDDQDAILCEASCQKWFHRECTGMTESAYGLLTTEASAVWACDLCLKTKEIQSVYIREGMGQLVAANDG
# The list shows a part of the results.
# Experiments:
# Test in all cases: log2 fold change, soluble protein after heating vs DMSO (PISA); higher = thermal stabilisation; K562 cells, 10 uM, 30 min; active = over 0.2 and 3.5 SD of the protein, either way, in both replicates (recomputed)
# saracatinib = compound: CN1CCN(CCOc2cc(OC3CCOCC3)c3c(Nc4c(Cl)ccc5c4OCO5)ncnc3c2)CC1 [saracatinib]
# How it was run: (§1)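 Soluble protein was quantified by TMTpro 16plex LC-MS/MS after channel sums were equalised. It was obtained as the supernatant after 21,000xg for 90 min from pooled aliquots of K562 cells (2×10^6 cells/mL, 10 μM compound, 30 min) heated for 3 min across 48°C-58°C and extracted in PBS with 0.5% NP-40 at 4°C. Thermal stability values are relative to control samples and come from duplicates. They are given as log2 fold changes.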
# sotrastaurin = compound: CN1CCN(c2nc(C3=C(c4c[nH]c5ccccc45)C(=O)NC3=O)c3ccccc3n2)CC1 [sotrastaurin]
# How it was run: as §1
# [1] = compound: CNC(=O)C1=CC=CC=C1NC2=NC(=NC=C2Cl)NC3=C(C=C(C=C3)N4CCOCC4)OC
# How it was run: as §1
# defactinib = compound: CNC(=O)c1ccc(Nc2ncc(C(F)(F)F)c(NCc3nccnc3N(C)S(C)(=O)=O)n2)cc1 [defactinib]
# How it was run: as §1
# rucaparib = compound: CNCc1ccc(-c2[nH]c3cc(F)cc4c3c2CCNC4=O)cc1 [rucaparib]
# How it was run: as §1
# [2] = compound: CNc1nc(-c2ccc3c(N)n[nH]c3c2)cc(N2C[C@@H](C(=O)NC3CCCCC3)CC[C@H]2C)n1
# How it was run: as §1
# encorafenib = compound: COC(=O)N[C@@H](C)CNc1nccc(-c2cn(C(C)C)nc2-c2cc(Cl)cc(NS(C)(=O)=O)c2F)n1 [encorafenib]
# How it was run: as §1
# [3] = compound: COC(=O)[C@H](CCSC)NC(=O)C1=C(C=C(C=C1)NC[C@H](CS)N)C2=CC=CC=C2
# How it was run: as §1
# Tubastatin A = compound: CN1CCc2c(c3ccccc3n2Cc2ccc(C(=O)NO)cc2)C1 [Tubastatin A]
# How it was run: as §1
# alvocidib = compound: CN1CC[C@H](c2c(O)cc(O)c3c(=O)cc(-c4ccccc4Cl)oc23)[C@H](O)C1 [alvocidib]
# How it was run: as §1
Target,log2 fold change (saracatinib),log2 fold change (sotrastaurin),log2 fold change [1],log2 fold change (defactinib),log2 fold change (rucaparib),log2 fold change [2],log2 fold change (encorafenib),log2 fold change [3],log2 fold change (Tubastatin A),log2 fold change (alvocidib)
"PSMB2, A0A087WVV1",inactive: 0.004,inactive: -0.103,inactive: -0.071,inactive: -0.031,inactive: -0.434,inactive: -0.012,inactive: 0.102,inactive: 0.028,,
PSPC1 (UniProt Q8WXF1),inactive: 0.007,inactive: -0.062,inactive: -0.036,active: -0.342,inactive: 0.002,inactive: -0.011,inactive: 0.03,inactive: -0.028,inactive: 0.041,
PTTG1 (UniProt O95997),inactive: -0.061,inactive: -0.004,inactive: -0.145,inactive: -0.029,inactive: -0.145,inactive: -0.088,inactive: -0.001,inactive: 0.031,inactive: 0.141,
PTPN12 (UniProt Q05209),inactive: 0.085,inactive: -0.148,inactive: 0.063,inactive: 0.006,inactive: 0.047,inactive: -0.04,inactive: 0.076,inactive: -0.088,inactive: 0.064,
PSMD12 (UniProt O00232),inactive: -0.024,inactive: -0.029,inactive: 0.033,inactive: 0.048,inactive: 0.014,inactive: 0.054,inactive: 0.031,inactive: -0.032,inactive: 0.04,
PTPRS (UniProt Q13332),inactive: 0.036,inactive: -0.138,inactive: 0.009,inactive: -0.192,,inactive: -0.132,,inactive: 0.13,,
PYGL (UniProt P06737),inactive: 0.063,inactive: -0.006,inactive: -0.185,inactive: -0.039,inactive: -0.028,inactive: -0.065,inactive: 0.037,inactive: 0.008,inactive: -0.007,
PSMC3 (UniProt E9PLG2),inactive: -0.197,inactive: 0.081,,inactive: 0.172,,inactive: -0.252,,inactive: -0.026,inactive: 0.079,
PSME4 (UniProt Q14997),inactive: -0.006,inactive: -0.035,inactive: -0.027,inactive: 0.037,inactive: -0.023,inactive: 0.067,inactive: 0.066,inactive: -0.029,inactive: 0.025,
PURA (UniProt Q00577),inactive: 0.061,inactive: 0.063,inactive: 0.059,inactive: 0.347,inactive: 0.309,inactive: 0.076,inactive: 0.086,inactive: 0.04,inactive: 0.001,
PSMB6 (UniProt P28072),inactive: -0.027,inactive: -0.017,inactive: -0.022,inactive: 0.089,inactive: -0.043,inactive: 0.011,inactive: 0.03,inactive: 0.017,inactive: 0.019,
PSMB4 (UniProt P28070),inactive: -0.012,inactive: 0.026,inactive: -0.031,inactive: 0.038,inactive: 0.019,inactive: -0.032,inactive: 0.011,inactive: 0.006,inactive: -0.002,
PSMD5 (UniProt Q16401),inactive: 0.019,inactive: -0.014,inactive: 0.016,inactive: -0.049,inactive: -0.045,inactive: -0.028,inactive: 0.008,inactive: 0.031,inactive: -0.037,
QRICH1 (UniProt Q2TAL8),inactive: -0.019,inactive: -0.076,inactive: -0.036,inactive: -0.271,inactive: -0.008,inactive: -0.004,inactive: 0.097,inactive: 0.169,inactive: 0.156,
PTRHD1 (UniProt Q6GMV3),inactive: -0.057,inactive: 0.061,inactive: 0.025,inactive: 0,inactive: -0.015,inactive: -0.022,inactive: -0.064,inactive: 0.003,inactive: 0.052,
PSMC1 (UniProt P62191),inactive: -0.062,inactive: -0.022,inactive: -0.019,inactive: 0.083,inactive: 0.043,inactive: 0.024,inactive: 0.022,inactive: -0.001,inactive: -0.009,
PSMC3IP (UniProt Q9P2W1),,,inactive: -0.038,inactive: -0.185,inactive: 0.122,,inactive: 0,inactive: 0.023,inactive: -0.028,inactive: -0.027
PUS1 (UniProt Q9Y606),,inactive: -0.039,inactive: -0.003,inactive: -0.299,inactive: 0.669,,inactive: 0.023,inactive: -0.232,inactive: 0.192,inactive: -0.132
PSD3 (UniProt Q9NYI0),,,,inactive: -0.004,inactive: -0.03,,inactive: 0.003,inactive: -0.019,,
PSMA7 isoform 2 (UniProt O14818),,inactive: 0.185,inactive: -0.091,inactive: 0.034,inactive: -0.036,,inactive: -0.102,inactive: 0.115,inactive: -0.055,inactive: 0.16
PSMB8 (UniProt P28062),,,inactive: 0.038,,,,,,,inactive: 0.001
PRUNE2 isoform 3 (UniProt Q8WUY3),inactive: -0.002,,inactive: -0.014,inactive: 0.029,inactive: 0.398,inactive: -0.042,inactive: 0.028,inactive: -0.12,,
PSMA3 (UniProt G3V4X5),,,,inactive: 0.061,,,,inactive: -0.208,,
PUM1 (UniProt Q14671),inactive: -0.155,,inactive: -0.348,,,inactive: -0.232,,,inactive: 0,
PSD2 (UniProt Q9BQI7),,inactive: 0.004,,inactive: 0.082,,,,inactive: 0.022,,

# Some values from the results shown.
# Value for PSMD12 (UniProt O00232) under log2 fold change [3]: inactive: -0.032
# Value for PSME4 (UniProt Q14997) under log2 fold change (Tubastatin A): inactive: 0.025

# Reprinted at random: two records from the list
Target,log2 fold change (saracatinib),log2 fold change (sotrastaurin),log2 fold change [1],log2 fold change (defactinib),log2 fold change (rucaparib),log2 fold change [2],log2 fold change (encorafenib),log2 fold change [3],log2 fold change (Tubastatin A),log2 fold change (alvocidib)
PSMB8 (UniProt P28062),,,inactive: 0.038,,,,,,,inactive: 0.001
PSMD5 (UniProt Q16401),inactive: 0.019,inactive: -0.014,inactive: 0.016,inactive: -0.049,inactive: -0.045,inactive: -0.028,inactive: 0.008,inactive: 0.031,inactive: -0.037,

# Later entries:

Target,log2 fold change (saracatinib),log2 fold change (sotrastaurin),log2 fold change [1],log2 fold change (defactinib),log2 fold change (rucaparib),log2 fold change [2],log2 fold change (encorafenib),log2 fold change [3],log2 fold change (Tubastatin A),log2 fold change (alvocidib)
PUSL1 (UniProt Q8N0Z8),,inactive: 0.047,inactive: -0.19,,inactive: -0.105,,inactive: 0.02,,inactive: 0.036,inactive: 0.328
PSMD8 (UniProt K7ERW6),,,,inactive: 0.011,,,,inactive: 0.066,inactive: 0.235,
PTPRJ (UniProt Q12913),,inactive: -0.202,,,,,,,,
PUF60 isoform 2 (UniProt Q9UHX1),inactive: 0.107,,,inactive: -0.165,,inactive: -0.403,,inactive: -0.089,inactive: 0.202,
PUM2 isoform 3 (UniProt Q8TB72),inactive: -0.077,,,,,inactive: -0.082,,,,inactive: -0.093
PTBP2 isoform 3 (UniProt Q9UKA9),,inactive: -0.059,inactive: 0.141,,,,,,,
PSMB10 (UniProt P40306),,inactive: -0.066,,inactive: 0.072,inactive: -0.115,,inactive: 0.094,inactive: -0.017,,
PTPN9 (UniProt P43378),inactive: -0.056,,,,,inactive: -0.002,,,,
PTGER3 isoform 2 (UniProt P43115),,,inactive: 0.08,,,,,,,
R3HCC1L (UniProt Q7Z5L2),,inactive: 0.038,inactive: -0.096,inactive: -0.358,,,,inactive: -0.144,inactive: 0.081,inactive: 0.082
PSIP1 (UniProt V9GYT7),inactive: 0.115,,,,inactive: 0.076,inactive: -0.216,inactive: -0.086,,inactive: -0.034,inactive: 0.023
PSMB9 (UniProt P28065),,inactive: 0.074,inactive: 0.062,inactive: -0.008,inactive: 0.296,,inactive: -0.22,inactive: 0.094,,
PYCARD isoform 2 (UniProt Q9ULZ3),,,inactive: -0.264,,,,,,,
R3HCC1 (UniProt Q9Y3T6),,inactive: 0.023,inactive: -0.111,inactive: -0.083,,,,inactive: -0.216,inactive: -0.054,inactive: -0.064
PSMC1 (UniProt G3V4X1),,,inactive: -0.011,,,,,,,
PTPN7 isoform 3 (UniProt P35236),,inactive: -0.374,inactive: -0.15,inactive: 0.006,inactive: 0.53,,inactive: 0.342,inactive: -0.137,,inactive: 0.037
PTEN isoform 2 (UniProt P60484),,,inactive: -0.247,,inactive: -0.108,,inactive: 0.015,,,
PSMD4 (UniProt Q5VWC4),,inactive: -0.027,,inactive: 0.073,inactive: 0.285,,inactive: 0.118,inactive: -0.052,,inactive: 0.018
PTPN18 (UniProt Q99952),,inactive: 0.164,inactive: -0.001,,inactive: 0.085,,inactive: 0.005,,,
PTP4A3 (UniProt O75365),,,,active: -1.14,,,,inactive: -0.029,,
PURG (UniProt Q9UJV8),,inactive: 0.142,,,,,,,,
PTRH1 (UniProt Q86Y79),inactive: -0.069,,,,,inactive: -0.005,,,,inactive: -0.011
PSMA3 (UniProt H0YJ03),inactive: -0.185,,,inactive: -0.023,inactive: 0.151,inactive: 0.067,inactive: -0.142,inactive: 0.087,inactive: 0.314,
PYCR1 (UniProt J3QKT4),,,inactive: -0.111,inactive: -0.084,inactive: 0.026,,inactive: -0.236,inactive: 0.199,inactive: -0.053,
PYGO2 (UniProt Q9BRQ0),,inactive: -0.076,inactive: -0.132,inactive: -0.333,inactive: 0.077,,inactive: 0.059,inactive: -0.065,,
